Measured values as given in PubChem BioAssay AID1508600 (Functional Genomics Laboratory (NCATS/FGL), 2020).
Hit rate of the full screen: of about 53,000 sequences, about 3,700 (7%) were called active.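 Rule for the calls: active = gene knockdowns whose robust z-score for IL-1 alpha signal is at least 2 or at most -2, so actives lie on both sides; inactive = the rest.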 Some of the results follow.

experiment: Components of the Cytosolic LPS Sensing Pathway: Gene Identification via Genome-wide siRNA Screen; settings: RAW264.7 macrophages, IL-1a HTRF, actives lie on both sides, screened at 100 nM (by protocol), cells primed 5 h with Pam3CSK4 first;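 note: robust z of the log signal after scaling to non-targeting control siRNA wells of the plate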
How it was run: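 Three distinct siRNAs per gene were tested singly at 100 nM in RAW264.7 macrophages. Following Pam3CSK4 priming and 24 hour LipidA transfection, IL-1a secretion was read by HTRF.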

| Sequence | z-score |
| --- | --- |
| GCUAUUGAAACUUAUGAGUTT against Srsf11 | inactive: -1.68 |
| GGCAGGUUCAUUGAGGUUCTT against Ogfod3 | inactive: 1.26 |
| GCUGUACGAGAAUAAGAAGTT against Impact | inactive: -0.53 |
| GGUUGUGGAUCAUUAUGAATT against Iscu | inactive: -1.21 |
| CGGAUAUUAUUGUUUGGAATT against Nlrp9a | inactive: 0.407 |
| GGUUGGAAUGCACACGAAATT against Tmem184c | inactive: 0.564 |
| GCUUCCUAGAUCAUGACUGTT against Ube2g2 | inactive: -0.318 |
| GGGUUUGACAACUUGACCUTT against Stradb | inactive: -1.04 |
| GCACGUGAACAACUCCAACTT against Ccdc144b | inactive: 0.28 |
| GGUAGUGCAAGUGUUCCGCTT against Kcns1 | inactive: -0.467 |
| CCAGAGCGAGUACAUUGCATT against Xpnpep1 | inactive: -0.478 |
| GCCUCUACAAGCCAACAUGTT against Pdgfc | inactive: 0.874 |
| AGCUCACAUCGUACUGAAGTT against Ctag2 | inactive: -0.689 |
| GCUACUCCAAUAAACGACATT against Glod5 | inactive: 0.678 |
| GGAAGACUGUUUUGAGUACTT against Brat1 | inactive: 1.55 |
| GGAAAAGACAUCAUUGUGCTT against Olfr914 | inactive: -1.38 |
| GCCUGAAAAGUUUAAACUCTT against Nlrp9b | inactive: -0.256 |
| GGGAUAAAGAUGAAGAACUTT against Tmem167b | inactive: 1.31 |
| GGAGAGAAAUCCAAAACCCTT against Arf6 | inactive: -1.23 |
| GGAAAAUCAAGACCUAUGGTT against Obox6 | inactive: -1.37 |
| GAACCUAAAGUCAUACUUGTT against Bcl2a1c | inactive: 0.375 |
| GGAAGUCAAGCAAAAGUUUTT against Hsd17b7 | inactive: -0.516 |

| Sequence | z-score |
| --- | --- |
| GGGCAGGGAGAAAAAAAAATT against Cxcl17 | inactive: -1.3 |
| GGCAGAAGGAACAAGAGAATT against Cd209b | inactive: -0.504 |
| GGCACUUAUUUCUGUGUUCTT against Trav13-5 | inactive: 0.759 |
| GGAGUUACUGACUAAGAACTT against Prl7a1 | inactive: -0.625 |
| GGAGCAACAGAAAAAGUGATT against Bsdc1 | inactive: -0.892 |
| GGAGGAGCUUUACACGGUUTT against Synrg | inactive: 1.3 |
| GAUGGAUCGAACUCUGCACTT against Stard10 | inactive: -0.957 |
| GGGAUGCAUUUCUCAAAUCTT against Olfr731 | inactive: -1.26 |
| GGAACAGCCUGUCAUUGAATT against Scn1a | inactive: -1.14 |
| UGCUUUCAUUCUAACAAGCTT against Olfr926 | inactive: -0.429 |
| CGUAGAUCUGGAUUGCUUUTT against Poli | inactive: 1.74 |
| GGUCAACAUGGAGAAGUACTT against Sp100 | inactive: -0.297 |
| CGUGCUGACUCAUAACCUGTT against Dync1li2 | inactive: 0.12 |
| GGUCUCCAAGGAAAAUGAGTT against H2-Q2 | inactive: 0.797 |
| GGGAGCAUCACCUCUAUCUTT against Plaat5 | inactive: -0.18 |
| CCUAAUGAUAGAGGAGCUGTT against Myoz3 | inactive: 0.203 |
| GGGAGAAAAAGCCCGGUGATT against Slc22a18 | inactive: -0.919 |
| GCAUACCAGUCUCAUCGCATT against Ipo5 | inactive: -0.0861 |
| GGAGCAAAAAUUCUCCCAUTT against Il18rap | inactive: -1.32 |
| GGCCAUGAUGGCUUUUACUTT against Serpinf2 | inactive: -0.652 |
| GGAAACCAGACUUUCCCUATT against Vmn1r43 | inactive: -0.18 |
| GGUUCCUGAGUCCUGAAUUTT against Mrpl19 | inactive: -0.196 |

| Sequence | z-score |
| --- | --- |
| CCUAAGUAAGAUGACAUUUTT against Slc35f5 | inactive: -0.861 |
| GGUCUUCUACAGGAGCAAATT against Bco1 | inactive: 1.47 |
| CCAAAUAGCAGUAUCAGGATT against Mavs | inactive: -0.142 |
| CCCGGUGCAGGAAUUCAACTT against Trmt1 | inactive: 1.29 |
| GGAGAGUCCACUAAUACUGTT against Dmrt3 | inactive: 0.217 |
| GGGUACCUCCCUGAGAUAUTT against Tyrobp | inactive: 0.517 |
| CCAGCACGCUGAAGUCUGATT against Adam19 | inactive: 1.21 |
| GGAGUGAUGUGCAAUACUUTT against Pgam1 | inactive: 0.494 |
| GGAUGACCAAUCAAUCAGGTT against Mylk | inactive: 0.16 |
| CCUAAUCCUGAUAAUUCCATT against Niban2 | inactive: -1.54 |
| CGAUAAUUGGCUAAACAGATT against Hook3 | inactive: -0.504 |
| GGAUAUCCAUAGAAUGUAATT against Perm1 | inactive: -1.03 |
| GCAAAGACGAAAUGCCGAGTT against Ttc32 | inactive: -0.23 |
| GGAUUUAGUUGAAGCCUUCTT against Apol10a | inactive: -0.586 |
| GGCAUCAAUAAUGGAAUCATT against Sbsn | inactive: -0.00275 |
| CCACUGAACUUAACCUUGGTT against Fndc10 | inactive: -1.16 |
| GCUAAUGACUUCUUCAGACTT against Slc25a22 | inactive: 1.75 |
| GGAUCCUAAUGAGGACAUUTT against Jchain | active: 2.75 |
| GGAAUCUGUUGAACAUAUCTT against Csn2 | inactive: 1.28 |
| GGACCUGAAGAAAUAUUUCTT against Cdk5 | inactive: -1.18 |
| GCCAAACGCAUCAUGGAAATT against Arglu1 | inactive: -0.59 |
| GGAAAGAGAUGAGAAUUUUTT against 4930447C04Rik | inactive: -0.275 |

2 records drawn at random from those above:

| Sequence | z-score |
| --- | --- |
| GGUCUCCAAGGAAAAUGAGTT against H2-Q2 | inactive: 0.797 |
| GGAGCAACAGAAAAAGUGATT against Bsdc1 | inactive: -0.892 |

(listing goes on)

| Sequence | z-score |
| --- | --- |
| UCACCCUGUUCGUAAUCAUTT against Olfr467 | inactive: -0.17 |
| GGAGUGUUGAAGAAUAAGATT against St3gal6 | inactive: 0.68 |
| CCUAGAUGUUUGUUUGGCUTT against Antxr2 | inactive: -0.0859 |
| CGUGCAUGUGUAAGUCAGGTT against Hpvc2 | inactive: 0.68 |
| CGAAUGUGUGAGAGAACAUTT against Zfp322a | inactive: -0.492 |
| GGAAGAAAUGAUAUUCUCATT against Nek11 | inactive: -0.518 |
| GGUGACCUCACAUUUGACUTT against Dpagt1 | inactive: 0.297 |
| GGUAUAUGUCACAAUGCAUTT against Farsa | inactive: 0.759 |
| GCAAGGAGACCGAUAUCAATT against Huwe1 | inactive: 0.167 |
| GGGCAGGGACAUUAGUCAUTT against Zfp106 | active: 2.88 |
| GGACACUUCCAAGUAUUGGTT against Tns1 | active: -2.11 |
| GGUGCAACAAUAUGAGACATT against Prom2 | inactive: 0.515 |
| CCAAACUUAAGCCUAUUCUTT against Mme | inactive: 1.32 |
| GGUUGCUCGGUUAGACUGUTT against Ipo11 | inactive: 0.362 |
| GGAGGAUAGUACCAAGCAATT against Timm21 | inactive: 0.283 |
| GCAAAGGAUUUGACUUCUATT against Vwa3b | inactive: -0.258 |
| GGUCCUCAGAAUGUAACAGTT against Igsf5 | inactive: -1.19 |
| GGAUGUUUGGACCAAUCACTT against Iba57 | inactive: -0.962 |
| GCUAUGAAAGGGCGAUUUGTT against Optn | inactive: -0.17 |
| GGAAAUUCACUUCAAUGAUTT against Dennd4a | inactive: 0.12 |
| GCAUCUCUCUAAUAGCCUUTT against Nop16 | inactive: 1.24 |
| GGAUUACGCAGAUUCCAUUTT against Rab22a | inactive: -0.474 |

| Sequence | z-score |
| --- | --- |
| GGCAUCACUGGUAAACAUUTT against Frzb | inactive: -0.196 |
| GGAUGGAUGAUCCAUACUGTT against Sell | inactive: -0.0321 |
| GGAGUUCUUUCUGAUAUCATT against Net1 | inactive: -1.24 |
| GGGAGACUGGUUCUUGAAGTT against Slc38a5 | inactive: 1.81 |
| GCAUGACAGUCAACACAAGTT against Slc35f6 | active: 2.04 |
| GCUUGUACUCUUUGGCCGGTT against Rabac1 | inactive: 1.68 |
| GGUACCUCUGGAAAAUGAGTT against Rfng | inactive: 1.44 |
| GCUUUUUGUGAAACUGGCCTT against Pstpip2 | inactive: 0.191 |
| GGCUACCAGUUUAUCCACATT against Has3 | inactive: -1.55 |
| GGGAAUGUAUCCACAUCAATT against Btbd35f1 | inactive: -0.0841 |
| GGCCAUUGCCAAGCACAAUTT against Trim35 | inactive: 0.847 |
| GGAGAAGUGGGUUAAGAAUTT against Ccl12 | inactive: -1.08 |
| CCAAUUGCUCUCCAUGAAATT against Coro1c | inactive: 0.331 |
| CGAGACAGUUUCCAUAGCGTT against Spen | inactive: -0.271 |
| CCACAUUAGGUGGAUAGGATT against E2f6 | inactive: -0.534 |
| GGCAUUUCAUAGAGAGAAUTT against LTO1 | active: -2.21 |
| GGCUACGUAGAUGUUGUAATT against Ankrd17 | inactive: -0.627 |
| CGGGACCUUUGUAACAGCUTT against Sirt3 | inactive: 0.546 |
| GGCUCUGACCAAGAAUGAUTT against Cpsf1 | inactive: 1.27 |

In another format: entries from further up.
Sequence | z-score
GGAGUUCUUUCUGAUAUCATT against Net1 | inactive: -1.24
GCUUGUACUCUUUGGCCGGTT against Rabac1 | inactive: 1.68
CCACAUUAGGUGGAUAGGATT against E2f6 | inactive: -0.534
GGCUCUGACCAAGAAUGAUTT against Cpsf1 | inactive: 1.27
